Test results published in patent US8188070B2, “Method of treating neurological diseases and disorders” (The Trustees of the University of Pennsylvania, priority 2002, dated 2012).

Test system: S5 cells
Experiment: High throughput screen: ATP level (viable cells) in S5 cells with reduced SMN
Assay type: cell-based, chicken
Settings: Gallus gallus, percentage increase of ATP level relative to cells treated with DMSO only, 18 ng/ml tet, 0.5 to 20 μM, read-out: Maximum Activity (%)
Experimental: In the SMN conditional knockout cell line, S5, the endogenous smn gene is disrupted by homologous recombination, and the SMN protein is stably expressed from an SMN cDNA under the control of a tetracycline (tet)-repressible promoter (Wang and Dreyfuss (2001) supra).
Libraries of compounds were screened against the S5 cell line. […] The cells were incubated for an additional 72 hours and the number of viable cells in each well was determined by measuring the ATP level in the cell lysate, a sensitive assay commonly used to assess cell viability in HTS (Crouch, et al. (1993) J. Immunol. Methods 160:81-88). […] Activity of the compounds was measured as the difference between the sample and the average of the controls.
The activities of all compounds were further examined at concentrations ranging from 0.5 to 20 μM. […] The activity of each compound was determined as a percentage increase of the ATP level, reflecting the number of viable cells, relative to cells treated with an equal volume of DMSO only. […]
After being incubated in medium containing 18 ng/ml tet for 24 hours, S5 cells were dispensed into 96-well plates at 120 μl per well. […] Luminescence was read on a Wallac Victor2 multi-channel plate reader (Perkin-Elmer, Boston, Mass.). […] Data from luminescence readings were analyzed with MICROSOFT® Excel.

Cc1ccccc1C(OCCN(C)C)c1ccccc1 (stereo not shown) [Compound 26]
Emax: 45%
